Experimental data taken from PubChem BioAssay AID540276 (National Center for Advancing Translational Sciences (NCATS), 2011).
Hit rate of the full screen: of about 300,000 compounds, about 5,400 (1.8%) were called active. Inconclusive means that the source gave no clear call. Such entries were picked first, then a sample of the others. Calls follow the shape of the full dose curve; tested in HEK293 cells. A potency beside an inconclusive call is a rough fit, not a confirmed value.
% is scaled to controls: 0 for no effect and ±100 for the full control effect; potency is read from the fitted curve at half-maximal effect.

Experiment: qHTS for inhibitors of binding or entry into cells for Marburg Virus
Settings: Marburg virus pseudotyped entry inhibition, cell reporter; activity change, negative = inhibition: at 37.8 µM (top of the series) unless noted
In the case of `O=C(Nc1ccccc1F)c1cc(S(=O)(=O)N2CCOCC2)ccc1N1CCOCC1`, the “activity change, negative = inhibition” value is reported as inactive: -3.61% [at 46.1 µM].
With `COc1ccc(C2CC(c3cccs3)=NN2C(=O)COC(=O)C2CCCCC2)cc1OC` (configuration not stated) the Potency was inconclusive: 6.31 µM [inhibitor, single point].
With `Cc1occc(=O)c1OC(=O)Nc1ccc(Cl)c(Cl)c1` the Potency was inconclusive: 17.8 µM [inhibitor, single point].
In the case of `CC(ON1CC1(C(F)(F)F)C(F)(F)F)(C(N)=O)C(N)=O` (configuration not stated), the Potency is reported as inconclusive: 1.58 µM [activator, partial curve, poor fit].
For `CCc1cccc(CC)c1-n1c(SCC(=O)c2c(N)n(C)c(=O)n(C)c2=O)nnc1-c1cccnc1`, the “activity change, negative = inhibition” value was inactive: 9.28%.
In the case of `COc1cc(NC(=O)CN2CCC(C(N)=O)(N3CCCCC3)CC2)c(OC)cc1Cl`, the Potency is reported as inconclusive: 3.16 µM [inhibitor, partial curve, poor fit].
With `O=C(Nc1cccnc1Cl)c1ccc(S(=O)(=O)N2CCCCCC2)cc1` the “activity change, negative = inhibition” value was inactive: -1.77%.
With `Cc1ccc(CNC(=O)C2CCCN(S(=O)(=O)c3ccc(F)cc3)C2)cc1` (configuration not stated) the Potency was inconclusive: 35.5 µM [activator, single point].
With `O=C1C2CCCN2C(c2ccccc2F)N1c1ccc(Cl)cc1` (configuration not stated) the Potency was inconclusive: 18.3 µM [inhibitor, partial curve].
In the case of `COc1ccc(CN(C2CCCC2)S(=O)(=O)c2ccc(-n3cnnn3)cc2)cc1OC`, the “activity change, negative = inhibition” value is reported as inactive: -28.4% [at 46.1 µM].
In the case of `Cc1ccc(Nc2nnc(SCC(=O)NCCN3C(=O)CSC3=O)s2)cc1`, the “activity change, negative = inhibition” value is reported as inactive: -2.98%.
With `COC(CNC(=O)C1CC(=O)N(CCc2ccccc2)C1)OC` (configuration not stated) the Potency was inconclusive: 0.316 µM [inhibitor, full curve, poor fit].
In the case of `COc1ccc(-c2cc(C(=O)Oc3cccc(C)c3)c3ccccc3n2)cc1`, the Potency is reported as inconclusive: 15.8 µM [inhibitor, single point].
In the case of `CCOC(=O)N1CCC(n2c(SCC(=O)NCc3ccco3)nc3ccsc3c2=O)CC1`, the Potency is reported as inconclusive: 18.3 µM [inhibitor, partial curve, poor fit].
For `Cc1sc2ncnc(N3CCC(C(=O)Nc4cc(S(C)(=O)=O)ccc4Cl)CC3)c2c1C`, the Potency was inconclusive: 15.8 µM [inhibitor, partial curve, poor fit].
For `CCCCCCCCOC(=O)c1cc([N+](=O)[O-])c(Sc2ncnc3nc[nH]c23)c([N+](=O)[O-])c1`, the Potency was inconclusive: 7.94 µM [inhibitor, partial curve, poor fit].
With `O=C(CCCCn1c(=O)c2ccccc2n(Cc2ccc(Cl)cc2)c1=O)NCc1ccccc1Cl` the Potency was inconclusive: 31.6 µM [inhibitor, single point].
With `Cc1cc(OC(C)C(=O)N(Cc2ccco2)Cc2ccccc2F)cc(C)c1Cl` (configuration not stated) the “activity change, negative = inhibition” value was inactive: -12.9% [at 46.1 µM].
For `O=C(N/N=C\c1cn(-c2ccccc2)nc1-c1ccccc1)c1ccc2c(c1)OCO2`, the Potency was inconclusive: 17.8 µM [inhibitor, single point].
With `CCOC(=O)C1=C(N)OC2=C(C(=O)CC(C)(C)C2)C1C1CCCCC1` (configuration not stated) the “activity change, negative = inhibition” value was inactive: -23.1%.
In the case of `CC(=O)Nc1ccccc1-c1nc2ccccc2n(CC(=O)c2ccc(C)c(C)c2)c1=O`, the “activity change, negative = inhibition” value is reported as inactive: -11.6% [at 46.1 µM].
With `CCOC(=O)c1c(NC(=O)c2cccs2)sc2c1CC(C)(C)OC2` the Potency was inconclusive: 31.6 µM [inhibitor, partial curve, poor fit].
In the case of `Clc1cccc(Nc2nc(-c3ccncc3)nc3ccccc23)c1`, the Potency is reported as inconclusive: 14.1 µM [inhibitor, partial curve, poor fit].
With `O=C(CSc1nccn1-c1ccccc1)c1ccc(Cl)cc1` the Potency was inconclusive: 7.94 µM [activator, partial curve, poor fit].
With `CC(=O)Nc1ccc(NC(=O)c2ccccc2CCc2ccccc2)cc1` the Potency was inconclusive: 20 µM [inhibitor, partial curve, poor fit].
For `COc1ccc(CCn2nnnc2C(C(C)C)N2CCN(c3ncccn3)CC2)cc1OC` (configuration not stated), the Potency was inconclusive: 20 µM [activator, single point].
With `Cc1ccc(OC(=O)CCC(=O)Nc2ccc(C(N)=O)cc2)cc1` the Potency was inconclusive: 6.31 µM [inhibitor, single point].
In the case of `COc1ccc(C(=O)C2CCCN(Cc3cccn3-c3ccccn3)C2)c(OC)c1` (configuration not stated), the Potency is reported as inconclusive: 8.91 µM [inhibitor, partial curve, poor fit].
With `Cc1ccc(C(=O)OCC(=O)c2c(N)n(C)c(=O)n(C)c2=O)cc1S(=O)(=O)N1CCCCC1` the Potency was inconclusive: 0.708 µM [inhibitor, full curve, poor fit].
For `CC(=O)N1CCSc2ccc(S(=O)(=O)NCCc3ccc(C)cc3)cc21`, the Potency was inconclusive: 8.91 µM [inhibitor, partial curve, poor fit].
In the case of `O=C(CCc1nc(-c2ccccn2)no1)NCc1ccc2c(c1)OCO2`, the “activity change, negative = inhibition” value is reported as inactive: 19.5% [at 46.1 µM].
For `Cc1ccc(C(=O)OC/C(O)=C(\C#N)c2nc3ccccc3[nH]2)cc1S(=O)(=O)N1CCOCC1`, the Potency was inconclusive: 3.98 µM [inhibitor, full curve, poor fit].
For `Cc1ccc2ncnc(Oc3ncccc3NC(=O)C(C)(C)C)c2c1`, the “activity change, negative = inhibition” value was inactive: -3.46% [at 46.1 µM].
In the case of `COC(=O)c1ccc(NC(=O)c2ccc(NC(=O)c3ccco3)cc2)cc1`, the Potency is reported as inconclusive: 7.94 µM [inhibitor, partial curve, poor fit].
For `CC(=O)Nc1cccc(C(=O)N(CCc2ccccc2)Cc2ccccc2)c1`, the “activity change, negative = inhibition” value was inactive: 4.13%.
With `COc1ccc(C(=O)/C=C/c2ccccc2C(F)(F)F)cc1` the “activity change, negative = inhibition” value was inactive: -24.8%.
In the case of `COc1cc2c(=O)n(-c3ccc(C)cc3)c(=O)n(CC(=O)c3ccc4c(c3)OCO4)c2cc1OC`, the Potency is reported as “inactive”.
For `CC1CC(OC(=O)c2ccccc2)(c2ccccc2)C(C)CN1C` (configuration not stated), the Potency was inconclusive: 22.4 µM [inhibitor, partial curve, poor fit].
With `COc1cc(/C=C2\SC(=O)N(CC(=O)Nc3ccccc3F)C2=O)cc(Cl)c1O` the Potency was inconclusive: 10 µM [inhibitor, partial curve, poor fit].
For `Cn1cc(/C=N/NC(N)=S)c2ccccc21`, the Potency was inconclusive: 8.91 µM [inhibitor, single point].
For `O=S(=O)(Cc1noc(-c2ccc(Cl)cc2)n1)Cc1ccco1`, the Potency was inconclusive: 5.62 µM [activator, single point].
For `COc1ccc(C2C(C(=O)Nc3cccc(C)n3)c3ccccc3C(=O)N2C)cc1` (configuration not stated), the Potency was inconclusive: 39.8 µM [inhibitor, partial curve, poor fit].
With `COc1ccc(C)cc1NC(=O)CN1C(=O)COc2ccc(C)cc21` the Potency was inconclusive: 35.5 µM [inhibitor, single point].
For `CC(C(=O)Nc1ccc(Cl)cc1Cl)N1C(=O)NC2(CCCC2)C1=O` (configuration not stated), the Potency was inconclusive: 28.2 µM [inhibitor, partial curve, poor fit].
With `Cc1ccccc1NC(=O)C(C)N1C(=O)c2ccccc2C1=O` (configuration not stated) the “activity change, negative = inhibition” value was inactive: 1.12% [at 46.1 µM].
With `CC(=O)c1cccc(NC(=O)CCNC(=O)c2cccc(C)c2)c1` the “activity change, negative = inhibition” value was inactive: 3.72% [at 46.1 µM].
For `COc1cc(S(=O)(=O)NC2CC(C)(C)NC(C)(C)C2)c(OC)cc1Cl`, the Potency was inconclusive: 3.55 µM [activator, single point].
For `Cc1cc(=O)[nH]c(/N=C(\N)Nc2cccc3ccccc23)n1`, the Potency was inconclusive: 15.8 µM [inhibitor, single point].
With `CCOCCCNC(=O)C1CCCN(Cc2nc(-c3ccc(CC)cc3)oc2C)C1` (configuration not stated) the Potency was inconclusive: 35.5 µM [inhibitor, single point].
In the case of `C/C(=N\NC(=O)C(N)=O)c1ccc(NC(=O)c2cccs2)cc1`, the “activity change, negative = inhibition” value is reported as inactive: -4.86% [at 46.1 µM].
For `Fc1ccc(/C=N/NC(=S)NCCc2ccccc2)cc1F`, the “activity change, negative = inhibition” value was inactive: -7.34% [at 46.1 µM].
With `Cc1ccccc1NS(=O)(=O)c1ccc(C(=O)NCC(c2ccco2)N2CCCCC2)cc1` (configuration not stated) the Potency was inconclusive: 3.55 µM [inhibitor, single point].
With `Cc1nc(CC(=O)Nc2ccc(C)c(C)c2)cs1` the “activity change, negative = inhibition” value was inactive: -0.575% [at 46.1 µM].
In the case of `O=C(C=Cc1ccccc1)NCCNC(=O)C=Cc1ccccc1`, the Potency is reported as inconclusive: 5.62 µM [activator, partial curve, poor fit].
With `Cc1cccc(S(=O)(=O)Nc2cccc(-c3cn4ccsc4n3)c2)c1` the Potency was inconclusive: 17.8 µM [inhibitor, single point].
With `Cc1cc(Cn2cnc3c2C[C@@H](C(=O)O)N(C(=O)C(c2ccccc2)c2ccccc2)C3)ccc1N` the Potency was inconclusive: 29.1 µM [activator, single point].
For `CC(=O)Nc1nonc1-c1nnc(SCC(=O)Nc2ccc(F)cc2F)n1-c1ccccc1`, the “activity change, negative = inhibition” value was inactive: 5.92% [at 46.1 µM].
In the case of `COc1ccccc1NC(=O)c1oc2ccc(C)cc2c1C`, the “activity change, negative = inhibition” value is reported as inactive: 0%.
With `O=C(N/N=C/c1ccccc1C(=O)O)c1ccc(COc2cccc3cccnc23)cc1` the Potency was inconclusive: 35.5 µM [activator, single point].
In the case of `Cc1ccc(C(=O)CSC2=C(C#N)C(c3ccco3)C3=C(CC(C)(C)CC3=O)N2)cc1` (configuration not stated), the Potency is reported as inconclusive: 8.91 µM [inhibitor, partial curve, poor fit].
With `O=C(Nc1ccccn1)C1CCN(S(=O)(=O)c2cccs2)CC1` the Potency was inconclusive: 29.1 µM [activator, single point].
For `COc1ccc(C2=Nn3c(nnc3-c3ccco3)SC2)cc1OC`, the “activity change, negative = inhibition” value was inactive: -25.8%.
In the case of `Cc1cccc(NC(=O)CC2C(=O)NC3CCCCC3N2C(=O)c2ccccc2Cl)c1` (configuration not stated), the “activity change, negative = inhibition” value is reported as inactive: -5.28%.
For `CCOC(=O)c1ccc(NC(=S)NC2CC(C)(C)NC(C)(C)C2)cc1`, the Potency was inconclusive: 29.1 µM [inhibitor, single point].
For `COc1ccc(C2=NO[C@@H]3[C@@H]4C[C@@H]([C@H]5C(=O)N(C)C(=O)[C@@H]45)[C@H]23)c(OC)c1`, the “activity change, negative = inhibition” value was inactive: 21.5% [at 46.1 µM].
In the case of `CNC(=S)N/N=C1\C(=O)c2cccc3cccc1c23`, the “activity change, negative = inhibition” value is reported as inactive: -5.1%.
